Laboratory results published in publication PMC3963969.
No constants are given. Whether binding was seen depends on the method and setting. Binding can be weak; no strength is given. Sequences can lack the tags named with a protein.

What was measured:
HA-Crb2 (S. pombe) = target: T1, HA-Crb2 (S. pombe) (UniProt P87074); experiment: pull-down; purified GST-Rad4 fragments (0.5 μM) incubated with HA-Rad9 or HA-Crb2 bound to anti-HA antibody beads, 4°C, 2 h, 20 mM TrisHCl, 150 mM NaCl, 0.02% NP-40, 1 mM DTT, 10% glycerol, pH 7.5; bound fragments blotted with anti-GST antibodies; both purified
T1 sequence: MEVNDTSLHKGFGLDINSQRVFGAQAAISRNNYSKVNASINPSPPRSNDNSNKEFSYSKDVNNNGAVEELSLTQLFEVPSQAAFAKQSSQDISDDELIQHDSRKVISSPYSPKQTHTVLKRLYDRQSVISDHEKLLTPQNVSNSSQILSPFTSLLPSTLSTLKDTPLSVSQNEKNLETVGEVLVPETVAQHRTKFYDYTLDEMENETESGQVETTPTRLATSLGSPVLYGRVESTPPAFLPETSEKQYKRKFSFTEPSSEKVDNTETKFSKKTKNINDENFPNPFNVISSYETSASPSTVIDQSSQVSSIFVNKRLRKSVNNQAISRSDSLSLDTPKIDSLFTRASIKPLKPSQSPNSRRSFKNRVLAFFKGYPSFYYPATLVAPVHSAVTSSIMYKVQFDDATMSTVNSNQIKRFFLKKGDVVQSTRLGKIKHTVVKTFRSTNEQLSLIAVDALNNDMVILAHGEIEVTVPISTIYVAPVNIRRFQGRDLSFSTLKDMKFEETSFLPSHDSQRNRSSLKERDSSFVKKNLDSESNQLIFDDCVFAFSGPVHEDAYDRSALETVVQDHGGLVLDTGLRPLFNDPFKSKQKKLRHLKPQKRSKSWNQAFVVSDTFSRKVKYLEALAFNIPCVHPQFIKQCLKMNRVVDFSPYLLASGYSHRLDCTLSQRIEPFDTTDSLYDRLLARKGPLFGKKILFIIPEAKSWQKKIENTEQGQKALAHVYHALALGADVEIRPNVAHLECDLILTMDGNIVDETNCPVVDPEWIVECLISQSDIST

[1] = target: T2, HA-Rad9, phosphorylated at Thr412 (S. pombe) (UniProt P26306); experiment: as above
T2 sequence (chain, phosphothreonine at 412 (detected with the phospho-specific antibody)): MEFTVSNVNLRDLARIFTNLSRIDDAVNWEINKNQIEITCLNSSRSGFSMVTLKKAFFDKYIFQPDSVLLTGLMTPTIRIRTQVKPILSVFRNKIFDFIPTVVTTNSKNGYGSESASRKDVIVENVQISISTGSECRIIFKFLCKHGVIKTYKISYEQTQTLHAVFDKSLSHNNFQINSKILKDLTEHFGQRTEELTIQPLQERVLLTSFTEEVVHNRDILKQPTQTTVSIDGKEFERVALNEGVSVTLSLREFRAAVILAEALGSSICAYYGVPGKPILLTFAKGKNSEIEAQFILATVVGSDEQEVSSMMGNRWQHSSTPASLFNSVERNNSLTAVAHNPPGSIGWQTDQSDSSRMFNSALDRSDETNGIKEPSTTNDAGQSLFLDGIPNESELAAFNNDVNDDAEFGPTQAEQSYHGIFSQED

| binding (HA-Crb2 (S. pombe)) | binding [1] | Substance |
| --- | --- | --- |
| binds |  | GST-tagged Rad4 fragment b (first pair of BRCT repeats) (S. pombe) (domain or fragment) |
|  | binds | GST-tagged Rad4 fragment d (contains the second pair of BRCT repeats) (S. pombe) (domain or fragment) |
| binds weakly | binds | GST-tagged Rad4 fragment e (contains the second pair of BRCT repeats) (S. pombe) (domain or fragment) |
